# Results: PubChem BioAssay AID485298 (National Center for Advancing Translational Sciences (NCATS), 2010)
# Out of some 320,000 compounds screened, about 740 (0.23%) were called active. This list was built around the results that the source calls inconclusive (neither active nor inactive); the mix of calls is not that of the screen. Calls come from the whole dose curve; as a rule, active = well fitted activation curve with a large enough effect; inconclusive = small, poorly fitted or top-dose-only effect; inactive = no such curve, though single readings can be large or run the other way. Where the call is inconclusive, the potency comes from a doubtful curve fit.
# Test: qHTS Assay for Small Molecule Inhibitors of Mitochondrial Division or Activators of Mitochondrial Fusion; note: nearly all actives have a fitted effect of over 45% in size
# Settings: S. cerevisiae fusion-defective mutant growth rescue, CellTiterGlo 48 h; series mostly up to 46.1 µM
# Method in brief: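 Growth-rescue viability read-out: after 48 h at the non-permissive 37C in glycerol/ethanol YPEG, yeast mitochondrial fusion mutants are measured by CellTiterGlo luminescence; compounds (23 nl pinned per well) restoring growth score as division inhibitors or fusion activators.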
# Potency is the fitted concentration of half-maximal effect.
row,Structure (SMILES),Potency
1,CCCn1nc(NC(=O)c2cccs2)c2cc3cc(OC)ccc3nc21,"inconclusive: 35.5 µM [activator, partial curve]"
2,COc1ccc(N=Nc2nc3cc(Br)c(Br)cc3n2C)c(OC)c1,"inconclusive: 17.8 µM [activator, single point]"
3,COc1ccccc1-c1sc2ccccc2c1-c1ccc(Br)nc1,"inconclusive: 3.16 µM [activator, single point]"
4,O=C(c1cc(Cl)cc(Cl)c1)N1CCC(=O)N(C(COCc2ccccc2)Cc2ccccc2)CC1 (stereo not drawn),"inconclusive: 31.6 µM [activator, single point]"
5,CCCc1ccc(OCc2ccc(C(=O)N3CCN(c4ccccn4)CC3)o2)c(OC)c1,"inconclusive: 15.8 µM [activator, single point]"
6,CC(C)(C)c1cc[n+](C2=C([O-])c3ccccc3C(=O)/C2=N\S(=O)(=O)c2ccccc2)cc1,"inconclusive: 5.62 µM [activator, single point]"
7,CCOc1ccc(-n2c(N)c(C(=O)N3CCN(C)CC3)sc2=S)cc1,inactive
8,O=C(Nn1cc(C(=O)Nc2ccccc2F)c2ccccc2c1=O)c1cnccn1,"inconclusive: 35.5 µM [activator, partial curve]"
9,CC(C)(C)c1ccc(S(=O)(=O)N2CCCCC2)cc1,"inconclusive: 12.6 µM [activator, partial curve]"
10,CC(C)n1nc(C(=O)NC2CCCCCC2)c2ccccc2c1=O,"inconclusive: 17.8 µM [activator, partial curve]"
11,O=C1C=C(/C=C/c2ccccc2)C[C@@H](c2ccc(F)cc2)C1,"inconclusive: 22.4 µM [activator, single point]"
12,Oc1c(CN2CCN(c3ccccc3)CC2)cc(Br)c2cccnc12,inactive
13,CCOC(=O)[C@H]1[C@H]2COc3ccc(Br)cc3[C@@H]2N2C(=O)c3cc(Br)ccc3NC(=O)[C@@]12C,"inconclusive: 12.6 µM [activator, single point]"
14,O=C1CC2(CCN(C(=O)c3ccccc3Br)CC2)Oc2ccccc21,inactive
15,O=C(CSCc1ccc(Cl)cc1)Nc1ccc(Br)cc1C(=O)O,inactive
16,O=S(=O)(c1ccc(F)cc1)c1nc(-c2ccco2)oc1Nc1ccccc1,"inconclusive: 17.8 µM [activator, single point]"
17,CC(C)N(C(=O)Cc1ccccc1[N+](=O)[O-])C(C)C,inactive
18,COc1cccc(-c2sc3ccc(OC)cc3c2-c2ccc(O)cc2)c1,"inconclusive: 15.8 µM [activator, single point]"
19,Cc1cccc(-c2nc(CS(=O)CC(=O)NC(C)CCc3ccccc3)c(C)o2)c1 (stereo not drawn),"inconclusive: 39.8 µM [activator, partial curve, poor fit]"
20,CCOc1ccc(CCNC(=O)c2cccc3c2C(=O)N(CCOC)C3)cc1OCC,inactive
21,CCn1c(N2CCN(S(=O)(=O)c3ccc(Cl)cc3)CC2)nc2ccccc21,"inconclusive: 22.4 µM [activator, partial curve]"
22,COc1ccc(-c2cc(C(=O)Nc3sc4c(c3C#N)CCCC4)c3ccccc3n2)cc1,inactive
23,Cc1cc(NCCCN2CCOCC2)n2ncc(-c3ccc(Cl)cc3)c2n1,inactive

row,Structure (SMILES),Potency
1,Cc1cc(C)n(-c2nnc(NC34CC5CC(CC(C5)C3)C4)nn2)n1,"inconclusive: 28.2 µM [activator, single point]"
2,O=C(Nc1cccc(NC(=O)c2nccc3ccccc23)c1)c1ccco1,"inconclusive: 17.8 µM [activator, single point]"
3,CC(Sc1ccccc1)C(=O)N1CCN(S(=O)(=O)c2cccc(Br)c2)CC1 (stereo not drawn),"inconclusive: 12.6 µM [activator, partial curve]"
4,CC(C)(C)c1csc(Sc2ccc([N+](=O)[O-])cn2)n1,inactive
5,N#C/C(=N\Nc1ccc([N+](=O)[O-])cc1)C(N)=S,"inconclusive: 25.1 µM [activator, single point]"
6,O=C(COc1cccc(NC(=O)c2cccc([N+](=O)[O-])c2)c1)c1ccc(F)cc1,"inconclusive: 12.6 µM [activator, partial curve]"
7,Cc1c(C(=O)N2CCN(S(=O)(=O)c3ccccc3F)CC2)oc2c(Cl)cccc12,"inconclusive: 17.8 µM [activator, single point]"
8,CC(CN1CCOCC1)OC(=O)c1ccc(Br)cc1 (stereo not drawn),inactive
9,CC(=O)Nc1nc2ccc(-c3nc4ccccc4o3)cc2s1,"inconclusive: 10 µM [activator, partial curve]"
10,Cc1cc2nc3s/c(=C/c4ccc(-c5ccccc5C(=O)O)o4)c(=O)n3c2cc1C,"inconclusive: 12.6 µM [activator, partial curve]"
11,CN(c1ccccc1)S(=O)(=O)c1ccc(C(=O)Nc2nnc(-c3ccco3)o2)cc1,"inconclusive: 3.55 µM [activator, partial curve]"
12,COc1cccc(NC(=O)c2sc3nc4n(c(=O)c3c2C)CCC4)c1,"inconclusive: 5.62 µM [activator, single point]"
13,CCCCOC(=O)CSc1nc2c(c(=O)[nH]c(=O)n2C)n1C/C=C(\C)Cl,"inconclusive: 6.31 µM [activator, single point]"
14,O=c1cc(NS(=O)(=O)c2ccccc2)nc(SCc2c(Cl)cccc2Cl)[nH]1,"inconclusive: 7.94 µM [activator, partial curve]"
15,Cc1ccc(-c2nc3sc(C(N)=O)c(N)c3c3c2CCCC3)cc1,"inconclusive: 15.8 µM [activator, partial curve]"
16,CS(=O)(=O)c1ccc2nc(NC(=O)c3ccccc3Br)sc2c1,inactive
17,Cc1ccc(C(=O)n2c(-c3ccccc3)cnc2SCC(=O)Nc2ccc(C)cc2C)cc1,"inconclusive: 25.1 µM [activator, single point]"
18,O=C(Oc1ccc(OC(=O)c2ccco2)c(S(=O)(=O)c2ccc(Cl)cc2)c1)c1ccco1,"inconclusive: 11.2 µM [activator, partial curve]"
19,O=C(Nc1ccc(N2CCN(C(=O)c3ccco3)CC2)cc1)c1cc(Br)ccc1Cl,"inconclusive: 14.1 µM [activator, single point]"
20,CCCCCCCCn1c2c(c(=N)c3ccccc31)CCC2,inactive
21,COc1ccccc1NC(=O)COc1ccc(/C=N/NC(=O)CSCc2cc(C)cc(C)c2)cc1,inactive
22,Cc1ccc(Cl)cc1N1CCN(C(=O)CCS(=O)(=O)c2cccc3nonc23)CC1,active: 14.1 µM
23,CC1CC(C)CN(C(=O)c2ccncc2)C1 (stereo not drawn),inactive

row,Structure (SMILES),Potency
1,CCC1=Nc2cc(C(=O)NCc3ccco3)ccc2Sc2ccc(Cl)cc21,"inconclusive: 14.1 µM [activator, partial curve]"
2,O=C1c2ccccc2-c2c1cccc2C(=O)N1CCN(C(=O)c2ccco2)CC1,inactive
3,c1ccc(-c2cn(-c3ccccc3)c3ncnc(NCCCN4CCOCC4)c23)cc1,"inconclusive: 15.8 µM [activator, partial curve]"
4,O=C(Nc1ccc(Oc2cccnc2)cc1)C1CCN(Cc2cc(Cl)ccc2O)CC1,"inconclusive: 5.62 µM [activator, single point]"
5,CCc1ccccc1NC(=S)NCc1cccn1C,inactive
6,CN(CC(=O)Nc1ccc(Cl)cc1)CC(=O)Nc1ccc(F)c(F)c1F,"inconclusive: 14.1 µM [activator, partial curve, poor fit]"
7,CCC(CC)c1nnc(NC(=O)c2c(-c3ccccc3)noc2C)s1,"inconclusive: 5.62 µM [activator, single point]"
8,COCCNC(=O)c1cccc(Nc2nc(-c3ccccc3)c3cc(Cl)ccc3n2)c1,"inconclusive: 15.8 µM [activator, partial curve]"
9,Cc1nc2ccc(S(=O)(=O)Nc3ccc(-c4nc5cccnc5s4)cc3)cc2s1,"inconclusive: 20 µM [activator, partial curve]"
10,O=C(CCNS(=O)(=O)c1ccc(Br)s1)NCc1ccccc1,"inconclusive: 11.2 µM [activator, partial curve]"
11,CCOC(=O)Cc1csc(NC(=O)CSc2ccc(Br)cc2)n1,"inconclusive: 35.5 µM [activator, single point]"
12,O=C(O)CCc1nn2c3ccccc3n(CC(=O)c3ccccc3)c2nc1=O,inactive
13,CCOc1cc(CNCCO)cc(Br)c1OCc1cccs1,inactive
14,CCCC(C)c1nnc(NC(=O)CN2C(=O)c3ccccc3C2=O)s1 (stereo not drawn),inactive
15,C=CCc1ccc(OCCCCOc2ccc(C(=O)O)cc2)c(OC)c1,"inconclusive: 14.1 µM [activator, partial curve]"
16,COc1ccccc1N1CCN(C(=O)c2ccc(-c3ccc(Cl)cc3)o2)CC1,"inconclusive: 31.6 µM [activator, single point]"
17,COc1ccc(CCNC(=O)C2CC(c3cccc(F)c3)=NO2)cc1 (stereo not drawn),"inconclusive: 14.1 µM [activator, partial curve]"
18,CCN(CC)CCNC(=O)Cn1c(-c2ccccn2)nc2ccccc21,inactive
19,CCOC(=O)c1n[nH]n2c1nc(=O)c1ccccc12,"inconclusive: 14.1 µM [activator, partial curve]"
20,CCC/C(=C1/c2ccccc2C(=O)N1c1ccccc1)c1ccc2c(c1)OCO2,"inconclusive: 7.94 µM [activator, single point]"
21,Cc1nc2ccccc2c(=O)n1NC(=O)c1ccc(Cl)c(Cl)c1,"inconclusive: 12.6 µM [activator, partial curve]"
22,CSc1ncccc1C(=O)NCCc1ccccc1,"inconclusive: 15.8 µM [activator, partial curve]"
